PubChem BioAssay AID638 (SRMLSC, 2007)
In all, about 1,300 compounds went through this assay and about 65 (5%) were called active.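 How the source made its calls: active means growth inhibition reaching a set limit at one or more tested doses; inactive means the rest.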 Some of the results follow. Measured potencies and affinities stand elsewhere.

Experiment: wild-type E. coli BW25113 antibacterial activity – OD615, dose response (AID 638)
Details: at 100 µM (top of the series) unless noted
Procedure, shortened: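 Assay system: E. coli BW25113 wild type; buffer or medium: Kanamycin-supplemented LB broth; signal: optical density (absorbance) at 615 nm; controls: chloramphenicol 30 µM control; doses: compound concentration series; times: bacterial exposure to compound 20 h at 37 °C; evaluation: IC50 from 4-parameter logistic, bounds fixed 0–100%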

Growth inhibition, inactive:
O=C(Nc1ncc(Br)s1)C(Cc1ccccc1)n1cccc1 (stereo unspecified) 9.71%
CCc1c(O)nc(SCC(=O)Nc2ccc(C)cc2)n(C2CCCCC2)c1=O -10.1%
CCOC(=O)c1cnc(-n2nc(C)cc2C)nc1NC1CCCCC1 -4.22%
CC(C)(C)OC(=O)N1CCC[C@H]1c1nnc(SCc2ccc(Cl)cc2Cl)o1 13.3%
Cc1cc(C2N=C(N)Nc3nc4ccccc4n32)c(C)n1-c1ccccc1Cl (stereo unspecified) 1.25%
Cc1cc(C)c(C#N)c(SCc2ccc3c(c2)OCO3)n1 -0.93%
Brc1ccc(-c2nc(-c3ccccc3)no2)o1 11.2%
CCOC(=O)c1sc(NC(=O)c2c(C)nn(Cc3ccccc3)c2C)cc1C 6.06%
CSc1ccc(S(=O)(=O)Nc2ccc(N3CCOCC3)c(Cl)c2)cc1 -2.97%
CCOC(=O)C1CCN(C(=O)c2oc3ccc(S(=O)(=O)N4CCCCCC4)cc3c2C)CC1 -8.04%
CC1(C)Cc2c(c(N3CCCC3)nc3sc4c(N5CCN(CCO)CC5)ncnc4c23)CO1 -8.86%
COc1ccc2nc3c(cc2c1)c(NC(=O)c1cccs1)nn3CC(C)C -6.34%
COC(=O)c1[nH]c2ccc(C)cc2c1NS(=O)(=O)c1ccc(F)cc1 -7.43%
Cc1cccc(Cn2c(=O)c3c(nc4n3CCCN4Cc3ccccc3)n(C)c2=O)c1 -5.94%
Cc1cccc(N2CC(c3nc4ccccc4n3C)CC2=O)c1C (stereo unspecified) -1.12%
CCCc1nc2sc3ccccc3c(=O)c2c(=O)n1Cc1ccco1 -1.85%
CCc1c(O)nc(SCc2ccccc2)n(C(C)CC)c1=O (stereo unspecified) -5.72%
CC1=CC(C)(C)N2C(=O)C3(SCC(=O)N3c3ccc(O)cc3)c3cc(C)cc1c32 (stereo unspecified) 1.81%
COc1ccc(NC(=O)c2cc3c(=O)n(C)c4ccccc4c3n2C)cc1OC -10.6%
COc1cccc(-c2cc(C(=O)Nc3c(C)nn(Cc4ccccc4C)c3C)no2)c1 -2.6%
Cc1cc(=O)[nH]c(SCC(=O)Nc2nc(-c3ccccc3)cs2)n1 3.69%
O=S(=O)(Nc1nc2ccccc2nc1NCc1ccco1)c1ccccc1 -8.38%
O=C(CSc1nc2ccccc2o1)Nc1nc2c(s1)CCCC2 18.3%
CCCCCCOC(=O)C(C#N)c1nc2ccccc2nc1N1CCN(C)CC1 (stereo unspecified) 12.3%
O=C(Cc1ccccc1)Nc1ccccc1N1CCN(c2ccccc2)CC1 -11.8%
Cc1cc(NC(=O)C2CCCCC2)nc2c1c(=O)oc1ccccc12 -14.4%
COc1ccccc1N1CCN(C(c2ccccc2Cl)c2nnnn2C(C)(C)C)CC1 (stereo unspecified) 3.17%
O=C(CSc1ncc(-c2ccc(F)cc2)n1Cc1ccco1)Nc1ccc2c(c1)OCO2 -11.5%
CCn1c(=O)c2cc(C(=O)N3CCN(C(=O)c4ccco4)CC3)sc2c2ccccc21 0.55%
O=C(CSc1n[nH]c(-c2ccco2)n1)N1c2ccccc2Sc2ccccc21 4.38%
Cc1nc(N2CCN(Cc3ccc4c(c3)OCO4)CC2)c2oc3ccccc3c2n1 -14.2%
COc1ccccc1-c1nnc(SC/C(O)=C(\C#N)c2nc3ccccc3[nH]2)n1C1CCCCC1 -4.94%
COc1ccc(CNC(=O)c2cc(-c3ccccc3OC)on2)cc1 10.6%
COc1ccc(-c2nc3oc4cc(OC)ccc4c(=O)c3c(=O)n2Cc2ccco2)cc1 -7.76%
O=C(Nc1nnc(-c2ccc3c(c2)CCCC3)o1)C1COc2ccccc2O1 (stereo unspecified) -7.51%
CC(=Nc1ccc(O)cc1)c1sc2ccccc2c1O -1.71%
COc1ccccc1-c1noc(CCC(=O)Nc2cccc(C(F)(F)F)c2)n1 16.2%
O=C(CCCSc1nc(-c2ccco2)cc(C(F)(F)F)n1)Nc1ccc2c(c1)OCO2 0.34%
CCc1ccccc1NS(=O)(=O)c1ccc2[nH]cc(C(=O)NCc3ccco3)c(=O)c2c1 -1.55%
COc1ccc(-c2cc(C(=O)N3CC4(C)CC3CC(C)(C)C4)no2)cc1OC (stereo unspecified) 6.72%
Cc1cc(=O)[nH]c(-n2nc(C)cc2C)n1 14.7%
Cc1c(C(=O)OCCOc2ccccc2)[nH]c2c1C(=O)CCC2 4.88%
COc1cccc(-c2nnc(NC(=O)c3ccc(S(=O)(=O)N4CCOCC4)cc3)o2)c1 -6.06%
N#Cc1nc(COc2ccc(Cl)cc2)oc1N1CCCCCC1 -0.12%
Cc1ccc(C)c(N2CCN(C(=O)c3ccc(NS(=O)(=O)c4c(C)noc4C)cc3)CC2)c1 -3%
COc1ccc2nc(SCC(=O)N(C)C3CCCCC3)c(C#N)cc2c1 -2.36%
N/C(=N/O)c1nc(N2CCCC2)nc(N(c2ccccc2)c2ccccc2)n1 -6.99%
CN1C(=O)C2(OCC(COc3ccc(Cl)cc3)O2)c2ccccc21 (stereo unspecified) -7.83%
Cc1cccc(OCCCCc2c(C)n[nH]c2C)c1C 15.9%
O=S(=O)(NC1CCCC1)c1ccc(S(=O)(=O)N(Cc2cccs2)CC2CCCO2)cc1 (stereo unspecified) -6.07%
C/C(O)=c1/ccc2cccc3nc(C)nc1c23 4.09%
O=C(Nc1ccc(C(F)(F)F)cc1)C1CCCN1S(=O)(=O)c1cccc2cccnc12 (stereo unspecified) -5.49%
O=C(Nc1nnc(C2CC2)s1)c1cc(-c2ccccc2)nn1-c1ccccc1 -12%
Cc1ccc(C)n1-n1c(C)nc2sc3c(c2c1=O)CCCCC3 -12.1%
COc1cccc(Cn2c(Oc3cccc(C)c3)nc3c2c(=O)n(C)c(=O)n3C)c1 -8.04%
OC(c1cccc(OCc2ccccc2)c1)c1nnc(-c2ccccc2)o1 (stereo unspecified) 7%
COc1ccc2[nH]c(=O)c(CN(C(=O)NC3CCCCC3)C3CCCCC3)cc2c1 -6.81%
CC(C)OCCCNc1ncnc2c1[nH]c1ccccc12 8.07%
CCOc1ccccc1N1CCN(Cc2ccc(Br)s2)CC1 -0.45%
Cc1cccc(NC(=O)c2cc(NC(=O)C3CCCCC3C(=O)O)ccc2N2CCCCC2)c1 (stereo unspecified) -4.25%
CCCc1cc(C(=O)N2CCN(c3ccccc3C)CC2)cs1 7.72%
COCCNc1nc(-n2nc(C)cc2C)nc2sc3c(c12)CCCC3 0.91%
CCOc1ccc2nc(NC(=O)C(CC)Sc3nc(C)cc(=O)[nH]3)sc2c1 (stereo unspecified) 2.47%
Cc1csc(NC(=O)c2cccc(Cn3nc(C)c(Br)c3C)c2)n1 -0.01%
O=C(COc1ccccc1)Nc1ccccc1N1CCCCC1 7.63%
COc1ccc(-c2nnc(NC(=O)c3ccc(S(=O)(=O)N4CCc5ccccc5C4)cc3)o2)cc1 -10.5%
O=C(N1CCN(c2ccccn2)CC1)N1c2ccccc2Sc2ccccc21 -20.2%
COc1ccccc1N1CCN(c2nc(C)nc3c2oc2ccccc23)CC1 -13.5%
COC(=O)c1ccsc1NC(=O)CN1CCN(c2ccc(F)cc2)CC1 -9.19%
Cc1ccc2oc(C(=O)NCc3ccc4c(c3)OCO4)c(C)c2c1 -0.78%
CCN(CC)c1nc(N)c2c(N)nc3c(c2c1C#N)CC(c1ccccc1)O3 (stereo unspecified) 12.4%
CCCOC(=O)c1ccc(-c2c(C)noc2-c2ccc(OC)cc2O)o1 14.1%
Cc1cc(C(=O)OCc2nc3ccccc3s2)c(C)o1 13.3%
C=C(C)COc1ccc(-c2nc(N)ncc2-c2ccc(OC)cc2)c(O)c1 9.95%
COc1ccccc1-c1cc(C(=O)NCc2ccccc2)no1 -0.45%
O=C(c1cc(-c2ccccc2)on1)N1CCN(Cc2ccc3c(c2)OCO3)CC1 7.5%
CCOC(=O)c1c(NC(=O)CN(CC)CC)sc2c1CCC2 11.8%
Clc1ccc(Cl)c(-c2nn3c(COc4ccccc4)nnc3s2)c1 1.16%
C/C(CCc1oc2ccccc2c1-c1ccc(C)o1)=N/O 6.34%
CC(C)(C)n1nnnc1C(c1cccs1)N(Cc1ccccc1)Cc1cccnc1 (stereo unspecified) 13.2%
O=C(CN(C1CC1)S(=O)(=O)c1ccc(S(=O)(=O)NC2CCCCC2)cc1)Nc1ccccc1 -16.4%
O=c1c(-c2nc3ccccc3o2)c2oc3ccccc3n2c2ccccc12 1.05%
CN(C)c1ccc(/C=N/n2ncc3ccccc32)cc1 -3.99%
CN(C1CCCCC1)S(=O)(=O)c1ccc(NC(=O)c2ccc(Br)o2)cc1 -6.35%
Cc1cccc(-c2cc3nc4c(c(N5CCOCC5)n3n2)CCCC4)c1 -0.27%
COc1ccc(C/C(O)=C(\C#N)c2nc3ccccc3s2)cc1 -2.95%
O=C(COc1cccc2ccccc12)N1CCN(c2ccccc2)CC1 -6.33%
Cc1[nH]n2c(=O)cc(C(C)(C)C)nc2c1-c1ccccc1 10.5%
Cn1c(NC(=O)c2ccccc2NC(=O)C(C)(C)C)nc2ccccc21 -18.3%
COc1ccc(NC(=O)c2ccc(Cl)c(S(=O)(=O)N3CCc4ccccc4C3)c2)cn1 -4.75%
CCOC(=O)c1sc2nc(CC(=O)OC)nc(N3CCN(c4ccccn4)CC3)c2c1C -12.8%

Taken from the results shown for reference:
Growth inhibition, inactive:
Brc1ccc(-c2nc(-c3ccccc3)no2)o1 11.2%
CCOC(=O)c1sc(NC(=O)c2c(C)nn(Cc3ccccc3)c2C)cc1C 6.06%
CSc1ccc(S(=O)(=O)Nc2ccc(N3CCOCC3)c(Cl)c2)cc1 -2.97%
CCOC(=O)C1CCN(C(=O)c2oc3ccc(S(=O)(=O)N4CCCCCC4)cc3c2C)CC1 -8.04%
CC1(C)Cc2c(c(N3CCCC3)nc3sc4c(N5CCN(CCO)CC5)ncnc4c23)CO1 -8.86%
